Experimental data as given in publication PMC10573977 (International Journal of Molecular Sciences, 2023).
Strings that start with PEPTIDE1 are HELM notation: dots part the residues, brackets hold end groups and non-standard residues.

Assay: general procedure: Fmoc solid-phase peptide synthesis; Rink amide MBHA resin (100-200 mesh, 0.83 mmol/g); HBTU/NMM in DMF; Cl-HOBt/DIC in NMP for first glycosyl-Ser coupling
Settings: whole synthesis, 280 nm

Substance: PEPTIDE1{D.R.V.Y.I.H.[Ser(Lact)].[am]}$$$$V2.0
- final HPLC purity: 100% purity (at 280 m)
